From the supplement of paper PMC12823440, “Inhibitors supercharge kinase turnover through native proteolytic circuits” (Nature, 2025)
The other results are listed elsewhere or left out. Hit calls seldom repeat between salt and free forms of one compound.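 In K562 cells expressing nanoluciferase-fused kinases, luminescence was recorded at 4 h intervals between 2 and 18 h, normalized as percent of control with DMSO at 100% and a positive control at 0%. A significant (2 sigma) signal drop marks a time point as decreased. The authors' rule for a hit is not shown and takes in more than the number of time points.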

Amino acid sequences for entries named in this document (tags omitted). A change or cut given only in a name is not applied to a line headed by its entry.
UniProt Q9UBF8: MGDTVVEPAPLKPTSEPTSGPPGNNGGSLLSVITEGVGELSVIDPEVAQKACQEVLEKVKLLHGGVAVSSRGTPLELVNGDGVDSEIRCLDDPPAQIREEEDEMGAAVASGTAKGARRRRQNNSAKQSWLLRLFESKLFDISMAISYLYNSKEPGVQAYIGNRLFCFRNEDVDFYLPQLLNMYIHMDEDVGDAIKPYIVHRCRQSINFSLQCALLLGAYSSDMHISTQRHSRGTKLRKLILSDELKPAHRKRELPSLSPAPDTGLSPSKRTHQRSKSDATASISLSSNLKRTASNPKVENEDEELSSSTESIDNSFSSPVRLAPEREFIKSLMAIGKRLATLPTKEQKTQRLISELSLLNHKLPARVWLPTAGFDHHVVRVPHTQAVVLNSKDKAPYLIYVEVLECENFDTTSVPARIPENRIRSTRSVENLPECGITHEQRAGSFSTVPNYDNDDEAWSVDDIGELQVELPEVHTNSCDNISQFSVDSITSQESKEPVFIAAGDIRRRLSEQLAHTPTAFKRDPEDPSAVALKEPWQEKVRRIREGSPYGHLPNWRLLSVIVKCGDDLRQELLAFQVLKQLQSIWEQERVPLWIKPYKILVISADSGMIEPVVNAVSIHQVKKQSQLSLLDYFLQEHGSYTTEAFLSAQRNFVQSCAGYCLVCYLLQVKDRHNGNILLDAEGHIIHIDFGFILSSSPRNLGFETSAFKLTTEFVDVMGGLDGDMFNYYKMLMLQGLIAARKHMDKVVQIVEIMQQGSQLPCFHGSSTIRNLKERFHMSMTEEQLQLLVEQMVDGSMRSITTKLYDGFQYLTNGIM
UniProt P42680: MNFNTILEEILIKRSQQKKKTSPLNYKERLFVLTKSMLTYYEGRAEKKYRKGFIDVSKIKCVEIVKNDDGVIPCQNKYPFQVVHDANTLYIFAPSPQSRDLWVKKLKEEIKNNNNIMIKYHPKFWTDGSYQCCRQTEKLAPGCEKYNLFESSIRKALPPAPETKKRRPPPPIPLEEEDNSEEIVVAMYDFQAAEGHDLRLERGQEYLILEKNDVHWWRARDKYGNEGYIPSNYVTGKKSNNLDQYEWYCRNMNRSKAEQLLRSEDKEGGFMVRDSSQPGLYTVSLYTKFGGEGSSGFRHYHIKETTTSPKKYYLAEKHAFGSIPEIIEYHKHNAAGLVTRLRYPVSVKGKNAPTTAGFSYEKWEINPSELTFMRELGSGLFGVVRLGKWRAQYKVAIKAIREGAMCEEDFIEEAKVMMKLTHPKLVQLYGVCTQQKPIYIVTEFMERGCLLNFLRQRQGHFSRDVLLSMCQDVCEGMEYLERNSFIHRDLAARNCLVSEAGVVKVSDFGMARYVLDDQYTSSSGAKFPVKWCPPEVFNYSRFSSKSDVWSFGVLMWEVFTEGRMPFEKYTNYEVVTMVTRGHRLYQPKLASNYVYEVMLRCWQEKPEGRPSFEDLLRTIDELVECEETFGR
UniProt Q13546: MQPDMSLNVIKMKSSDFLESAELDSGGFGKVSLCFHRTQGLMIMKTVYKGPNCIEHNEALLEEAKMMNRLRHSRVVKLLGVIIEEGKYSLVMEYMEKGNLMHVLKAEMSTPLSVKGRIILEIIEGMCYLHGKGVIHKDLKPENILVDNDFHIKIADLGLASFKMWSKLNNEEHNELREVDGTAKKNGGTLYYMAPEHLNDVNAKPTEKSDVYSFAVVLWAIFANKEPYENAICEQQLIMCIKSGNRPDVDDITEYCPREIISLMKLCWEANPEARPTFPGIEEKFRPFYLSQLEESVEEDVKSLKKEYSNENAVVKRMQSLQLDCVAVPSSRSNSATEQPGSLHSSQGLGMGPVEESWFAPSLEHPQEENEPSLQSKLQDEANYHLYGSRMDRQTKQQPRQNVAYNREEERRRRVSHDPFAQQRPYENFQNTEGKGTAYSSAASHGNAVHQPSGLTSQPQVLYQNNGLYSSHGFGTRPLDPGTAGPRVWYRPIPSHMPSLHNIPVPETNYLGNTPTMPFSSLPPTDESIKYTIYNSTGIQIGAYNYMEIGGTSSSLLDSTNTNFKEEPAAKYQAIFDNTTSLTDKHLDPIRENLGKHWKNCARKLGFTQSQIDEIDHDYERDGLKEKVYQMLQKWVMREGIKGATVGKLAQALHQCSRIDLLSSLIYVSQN
UniProt P53667: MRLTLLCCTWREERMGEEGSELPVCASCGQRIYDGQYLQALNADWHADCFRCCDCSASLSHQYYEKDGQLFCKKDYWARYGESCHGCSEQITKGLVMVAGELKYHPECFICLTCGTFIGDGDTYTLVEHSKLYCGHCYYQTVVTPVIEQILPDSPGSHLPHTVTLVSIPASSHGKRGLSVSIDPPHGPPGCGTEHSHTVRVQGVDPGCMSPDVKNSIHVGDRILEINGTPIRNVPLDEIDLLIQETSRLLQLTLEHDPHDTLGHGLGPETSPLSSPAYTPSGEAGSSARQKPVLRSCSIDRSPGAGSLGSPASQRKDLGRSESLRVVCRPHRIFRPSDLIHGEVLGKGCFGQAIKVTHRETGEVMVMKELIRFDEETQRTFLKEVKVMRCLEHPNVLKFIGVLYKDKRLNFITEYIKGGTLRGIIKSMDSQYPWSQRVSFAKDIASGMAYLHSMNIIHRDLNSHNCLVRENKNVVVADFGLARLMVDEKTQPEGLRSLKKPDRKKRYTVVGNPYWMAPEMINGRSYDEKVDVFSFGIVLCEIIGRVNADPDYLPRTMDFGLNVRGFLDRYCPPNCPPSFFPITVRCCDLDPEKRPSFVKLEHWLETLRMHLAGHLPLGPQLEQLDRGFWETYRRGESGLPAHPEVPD
UniProt P49137, whole entry, looked up: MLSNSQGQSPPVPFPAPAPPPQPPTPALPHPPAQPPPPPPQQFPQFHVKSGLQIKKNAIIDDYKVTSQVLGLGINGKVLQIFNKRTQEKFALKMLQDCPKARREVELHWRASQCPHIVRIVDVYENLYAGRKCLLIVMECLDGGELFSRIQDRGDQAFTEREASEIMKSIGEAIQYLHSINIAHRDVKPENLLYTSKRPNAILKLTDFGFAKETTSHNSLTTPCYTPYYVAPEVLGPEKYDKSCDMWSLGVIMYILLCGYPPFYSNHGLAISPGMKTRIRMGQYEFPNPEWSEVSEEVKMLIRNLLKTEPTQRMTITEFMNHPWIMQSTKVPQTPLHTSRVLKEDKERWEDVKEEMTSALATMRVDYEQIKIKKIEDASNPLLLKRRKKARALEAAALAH
UniProt Q96KB5: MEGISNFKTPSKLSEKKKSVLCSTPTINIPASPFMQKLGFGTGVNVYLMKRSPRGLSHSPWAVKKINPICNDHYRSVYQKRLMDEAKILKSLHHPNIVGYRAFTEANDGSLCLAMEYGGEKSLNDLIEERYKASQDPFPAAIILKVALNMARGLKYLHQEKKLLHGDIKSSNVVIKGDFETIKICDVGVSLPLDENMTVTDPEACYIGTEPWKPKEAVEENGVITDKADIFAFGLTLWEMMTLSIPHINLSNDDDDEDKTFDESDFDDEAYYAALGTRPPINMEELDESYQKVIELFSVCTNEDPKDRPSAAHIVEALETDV
UniProt Q00535, whole entry, looked up: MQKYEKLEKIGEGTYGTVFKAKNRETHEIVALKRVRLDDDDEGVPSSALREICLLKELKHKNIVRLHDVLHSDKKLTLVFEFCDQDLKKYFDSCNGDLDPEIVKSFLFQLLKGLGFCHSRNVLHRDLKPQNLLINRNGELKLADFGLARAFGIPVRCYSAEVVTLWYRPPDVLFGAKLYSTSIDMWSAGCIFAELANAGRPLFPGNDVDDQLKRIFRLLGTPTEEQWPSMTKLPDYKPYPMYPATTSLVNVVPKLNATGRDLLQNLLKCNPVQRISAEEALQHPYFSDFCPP
UniProt P11362, whole entry, looked up: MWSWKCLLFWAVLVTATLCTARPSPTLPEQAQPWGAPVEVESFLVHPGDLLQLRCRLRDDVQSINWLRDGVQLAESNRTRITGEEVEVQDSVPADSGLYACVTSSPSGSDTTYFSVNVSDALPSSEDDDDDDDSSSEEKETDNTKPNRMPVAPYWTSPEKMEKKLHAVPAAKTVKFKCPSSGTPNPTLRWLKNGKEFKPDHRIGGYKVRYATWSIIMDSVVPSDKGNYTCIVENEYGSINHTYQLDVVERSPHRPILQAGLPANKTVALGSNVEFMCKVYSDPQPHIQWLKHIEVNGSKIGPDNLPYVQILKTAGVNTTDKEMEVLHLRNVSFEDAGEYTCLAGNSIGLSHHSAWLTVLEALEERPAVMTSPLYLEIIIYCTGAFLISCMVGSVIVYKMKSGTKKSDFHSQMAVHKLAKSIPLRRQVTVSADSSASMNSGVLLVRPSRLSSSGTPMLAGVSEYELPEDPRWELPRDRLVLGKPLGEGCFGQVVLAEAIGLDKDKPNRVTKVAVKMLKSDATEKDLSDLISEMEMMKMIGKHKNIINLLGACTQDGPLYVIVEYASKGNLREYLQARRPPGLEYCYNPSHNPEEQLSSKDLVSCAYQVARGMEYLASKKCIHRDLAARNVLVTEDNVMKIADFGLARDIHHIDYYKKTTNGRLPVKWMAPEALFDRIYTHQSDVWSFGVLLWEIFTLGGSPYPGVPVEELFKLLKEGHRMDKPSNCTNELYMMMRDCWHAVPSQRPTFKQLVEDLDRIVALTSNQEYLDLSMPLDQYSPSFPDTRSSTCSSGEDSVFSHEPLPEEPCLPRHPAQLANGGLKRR
UniProt P21802, whole entry, looked up: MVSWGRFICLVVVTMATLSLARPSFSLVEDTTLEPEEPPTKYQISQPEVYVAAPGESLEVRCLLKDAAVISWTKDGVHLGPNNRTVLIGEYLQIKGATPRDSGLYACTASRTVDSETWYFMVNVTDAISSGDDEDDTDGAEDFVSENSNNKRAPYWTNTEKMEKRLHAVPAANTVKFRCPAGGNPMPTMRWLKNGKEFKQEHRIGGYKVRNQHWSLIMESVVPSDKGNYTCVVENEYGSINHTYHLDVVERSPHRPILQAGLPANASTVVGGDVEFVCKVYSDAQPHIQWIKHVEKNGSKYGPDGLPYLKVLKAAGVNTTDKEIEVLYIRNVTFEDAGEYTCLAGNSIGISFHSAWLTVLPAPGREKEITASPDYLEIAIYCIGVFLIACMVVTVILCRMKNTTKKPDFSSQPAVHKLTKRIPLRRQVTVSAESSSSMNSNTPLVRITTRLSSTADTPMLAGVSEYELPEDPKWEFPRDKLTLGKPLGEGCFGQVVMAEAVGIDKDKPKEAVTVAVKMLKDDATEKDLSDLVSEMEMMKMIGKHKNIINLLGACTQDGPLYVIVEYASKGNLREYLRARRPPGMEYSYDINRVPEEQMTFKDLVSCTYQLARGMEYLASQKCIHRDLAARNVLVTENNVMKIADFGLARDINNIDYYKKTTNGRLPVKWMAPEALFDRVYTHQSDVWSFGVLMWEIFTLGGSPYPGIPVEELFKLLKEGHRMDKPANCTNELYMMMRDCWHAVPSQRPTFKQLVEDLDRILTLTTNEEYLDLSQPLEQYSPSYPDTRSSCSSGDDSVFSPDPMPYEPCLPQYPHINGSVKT
UniProt Q16288, whole entry, looked up: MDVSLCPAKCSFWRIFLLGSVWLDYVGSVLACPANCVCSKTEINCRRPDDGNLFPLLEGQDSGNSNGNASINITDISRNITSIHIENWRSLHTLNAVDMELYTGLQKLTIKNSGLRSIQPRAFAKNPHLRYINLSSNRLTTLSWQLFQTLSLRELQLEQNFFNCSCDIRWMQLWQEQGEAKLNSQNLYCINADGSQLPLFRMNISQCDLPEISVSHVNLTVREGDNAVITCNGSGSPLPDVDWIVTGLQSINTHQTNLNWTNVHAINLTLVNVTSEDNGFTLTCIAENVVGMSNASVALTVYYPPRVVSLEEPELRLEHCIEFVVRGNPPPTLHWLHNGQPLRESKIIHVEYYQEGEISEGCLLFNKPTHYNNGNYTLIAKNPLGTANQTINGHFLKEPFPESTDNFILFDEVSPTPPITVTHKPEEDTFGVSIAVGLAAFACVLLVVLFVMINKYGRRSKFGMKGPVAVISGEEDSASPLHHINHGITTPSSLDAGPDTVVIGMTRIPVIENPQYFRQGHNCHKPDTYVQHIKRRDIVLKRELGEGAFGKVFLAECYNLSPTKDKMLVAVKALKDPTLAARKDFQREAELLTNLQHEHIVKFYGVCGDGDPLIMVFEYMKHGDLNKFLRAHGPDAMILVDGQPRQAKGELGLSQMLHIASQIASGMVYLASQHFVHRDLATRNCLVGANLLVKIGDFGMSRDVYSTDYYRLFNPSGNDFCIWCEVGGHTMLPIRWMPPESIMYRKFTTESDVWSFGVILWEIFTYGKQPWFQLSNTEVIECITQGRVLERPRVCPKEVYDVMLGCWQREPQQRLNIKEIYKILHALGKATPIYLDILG

Assays:
Test in all cases: number of time points (of 5) at which kinase-Nluc abundance scored as decreased, DMSO-normalised (count); higher = more persistent destabilization
[1] = compound: CCS(=O)(=O)N1CCN(c2ccc(Nc3ncc(C(N)=O)c(NC4CC4)n3)cc2)CC1 [Cerdulatinib (hydrochloride)]; conditions: 10 µM; K562; 2-18 h
Cerdulatinib = compound: CCS(=O)(=O)N1CCN(c2ccc(Nc3ncc(C(N)=O)c(NC4CC4)n3)cc2)CC1 [Cerdulatinib]; conditions: 10 µM; K562; 2-18 h
[2] = compound: CCc1nc(C(N)=O)c(Nc2ccc(N3CCC(N4CCN(C)CC4)CC3)c(OC)c2)nc1NC1CCOCC1 [Gilteritinib hemifumarate]; conditions: 2 µM; K562; 2-18 h
Gilteritinib = compound: CCc1nc(C(N)=O)c(Nc2ccc(N3CCC(N4CCN(C)CC4)CC3)c(OC)c2)nc1NC1CCOCC1 [Gilteritinib]; conditions: 2 µM; K562; 2-18 h
[3] = compound: CN(C)C(=N)NC(=N)N [Metformin (hydrochloride)]; conditions: 10 µM; K562; 2-18 h
Metformin = compound: CN(C)C(=N)NC(=N)N [Metformin]; conditions: 10 µM; K562; 2-18 h
Ribociclib hydrochloride = compound: CN(C)C(=O)c1cc2cnc(Nc3ccc(N4CCNCC4)cn3)nc2n1C1CCCC1 [Ribociclib hydrochloride]; conditions: 2.5 µM; K562; 2-18 h
[4] = compound: CN(C)C(=O)c1cc2cnc(Nc3ccc(N4CCNCC4)cn3)nc2n1C1CCCC1 [Ribociclib succinate hydrate]; conditions: 2.5 µM; K562; 2-18 h
Ribociclib succinate = compound: CN(C)C(=O)c1cc2cnc(Nc3ccc(N4CCNCC4)cn3)nc2n1C1CCCC1 [Ribociclib succinate]; conditions: 10 µM; K562; 2-18 h
Ribociclib = compound: CN(C)C(=O)c1cc2cnc(Nc3ccc(N4CCNCC4)cn3)nc2n1C1CCCC1 [Ribociclib]; conditions: 10 µM; K562; 2-18 h
Afatinib (dimaleate) = compound: CN(C)C/C=C/C(=O)Nc1cc2c(Nc3ccc(F)c(Cl)c3)ncnc2cc1O[C@H]1CCOC1 [Afatinib (dimaleate)]; conditions: 2.5 µM; K562; 2-18 h
Afatinib = compound: CN(C)C/C=C/C(=O)Nc1cc2c(Nc3ccc(F)c(Cl)c3)ncnc2cc1O[C@H]1CCOC1 [Afatinib]; conditions: 10 µM; K562; 2-18 h
[5] = compound: CN1CCCN(C(=O)c2cccc(-c3ccc(/C=C4/C(=O)Nc5ccc(Cl)cc54)o3)c2)CC1 [CX-6258 (hydrochloride hydrate)]; conditions: 2.5 µM; K562; 2-18 h
CX-6258 (hydrochloride) = compound: CN1CCCN(C(=O)c2cccc(-c3ccc(/C=C4/C(=O)Nc5ccc(Cl)cc54)o3)c2)CC1 [CX-6258 (hydrochloride)]; conditions: 2.5 µM; K562; 2-18 h
[6] = compound: CN1CCCN(C(=O)c2cccc(-c3ccc(/C=C4/C(=O)Nc5ccc(Cl)cc54)o3)c2)CC1; conditions: 2.5 µM; K562; 2-18 h
[7] = compound: CNC(=O)c1cc(Oc2ccc(NC(=O)Nc3ccc(Cl)c(C(F)(F)F)c3)c(F)c2)ccn1 [Regorafenib (monohydrate)]; conditions: 2.5 µM; K562; 2-18 h
Regorafenib = compound: CNC(=O)c1cc(Oc2ccc(NC(=O)Nc3ccc(Cl)c(C(F)(F)F)c3)c(F)c2)ccn1 [Regorafenib]; conditions: 2.5 µM; K562; 2-18 h
[8] = compound: CNC(=O)c1ccc(Nc2ncc(C(F)(F)F)c(NCc3nccnc3N(C)S(C)(=O)=O)n2)cc1 [Defactinib (hydrochloride)]; conditions: 10 µM; K562; 2-18 h
Defactinib = compound: CNC(=O)c1ccc(Nc2ncc(C(F)(F)F)c(NCc3nccnc3N(C)S(C)(=O)=O)n2)cc1 [Defactinib]; conditions: 10 µM; K562; 2-18 h
PND-1186 (hydrochloride) = compound: CNC(=O)c1ccccc1Nc1cc(Nc2ccc(N3CCOCC3)cc2OC)ncc1C(F)(F)F [PND-1186 (hydrochloride)]; conditions: 10 µM; K562; 2-18 h

Target	number of time points [1]	number of time points (Cerdulatinib)	number of time points [2]	number of time points (Gilteritinib)	number of time points [3]	number of time points (Metformin)	number of time points (Ribociclib hydrochloride)	number of time points [4]	number of time points (Ribociclib succinate)	number of time points (Ribociclib)	number of time points (Afatinib (dimaleate))	number of time points (Afatinib)	number of time points [5]	number of time points (CX-6258 (hydrochloride))	number of time points [6]	number of time points [7]	number of time points (Regorafenib)	number of time points [8]	number of time points (Defactinib)	number of time points (PND-1186 (hydrochloride))
PIK4CB (UniProt Q9UBF8)	3	2	0	0	0	0	0	0	0	0	0	1	0	0	0	0	0	0	0	0
TEC (UniProt P42680)	3	0	0	0	0	0	0	0	0	0	0	0	0	0	0	0	0	0	0	0
FGR (UniProt P09769)	0	0	0	0	0	0	0	0	0	0	0	0	0	0	0	0	0	0	0	0
CSK (UniProt P41240)	0	0	0	0	0	0	0	0	0	0	0	0	0	0	0	0	0	0	0	0
BLK (UniProt P51451)	2	0	0	0	0	0	0	0	0	0	0	4	2	0	0	0	0	2	3	0
INSRR (UniProt P14616)	4	2	0	0	0	0	0	0	0	0	0	3	0	0	0	0	0	0	1	0
RIPK1 (UniProt Q13546)	3	0	0	0	0	0	0	0	0	0	0	3	0	0	0	0	0	0	0	0
RAF1_S257L (clone: RAF1_mut) (UniProt P04049)	4	0	0	0	0	0	0	0	0	0	0	3	0	0	0	0	0	0	0	0
LYN (UniProt P07948)	1	1	0	0	0	0	0	0	0	0	0	3	0	0	0	0	0	0	0	0
ZAP70 (UniProt P43403)	0	0	0	0	0	0	0	0	0	0	0	0	0	0	0	0	0	0	0	0
ABL1 (UniProt P00519)	4	0	0	0	0	0	0	0	0	0	0	3	0	0	0	0	0	0	0	0
LIMK2 (UniProt P53671)	3	0	0	0	0	0	0	0	0	0	0	4	1	0	0	0	2	0	0	0
CSNK1D (UniProt P48730)	1	0	0	0	0	0	0	0	0	0	0	3	0	0	0	0	0	0	3	0
IRAK3 (UniProt Q9Y616)	3	1	0	0	0	0	0	0	0	0	0	0	0	0	0	0	0	0	3	0
PAK4 (UniProt O96013)	0	0	0	0	0	0	0	0	0	0	0	0	0	0	0	0	0	0	0	0
LIMK1 (UniProt P53667)	4	4	0	0	0	0	0	0	0	0	0	4	3	2	0	4	3	0	0	0
CHEK2 (UniProt O96017)	3	0	0	0	0	0	0	0	0	0	0	0	0	0	0	1	1	1	0	0
GSK3A (UniProt P49840)	0	0	0	0	0	0	0	0	0	0	0	0	0	0	0	0	0	0	0	0
MAPKAPK2 (UniProt P49137)	0	0	0	0	0	0	0	0	0	0	0	0	0	0	0	0	0	0	0	0
BRAF_V600E	3	1	0	0	0	0	0	0	0	0	0	2	0	0	0	1	0	1	2	0
PBK (UniProt Q96KB5)	0	0	0	0	0	0	0	0	0	0	0	0	0	0	0	0	0	0	0	0
CDK5 (UniProt Q00535)	0	0	0	0	0	0	0	0	0	0	0	0	0	0	0	0	0	0	0	0
FGFR1 (UniProt P11362)	3	0	0	0	0	0	0	0	0	0	0	3	0	0	0	0	0	0	0	0
FGFR2 (UniProt P21802)	3	1	0	0	0	0	0	0	0	0	0	0	0	0	0	3	2	3	2	0
PDK1 (UniProt Q15118)	0	0	0	0	0	0	0	0	0	0	0	0	0	0	0	0	0	0	0	0
SYK (UniProt P43405)	0	0	0	0	0	0	0	0	0	0	0	0	0	0	0	0	0	0	0	0
MAP4K2 (UniProt Q12851)	0	0	0	0	0	0	0	0	0	0	0	0	0	0	0	0	0	0	0	0
NTRK3 (UniProt Q16288)	4	2	0	0	0	0	0	0	0	0	0	0	1	0	0	0	0	0	2	0
HER2 (UniProt P04626)	3	2	0	0	0	0	0	0	0	0	5	5	0	0	0	0	1	0	0	0
RAF1 (UniProt P04049)	2	1	0	0	0	0	0	0	0	0	0	2	0	0	0	2	2	3	0	0
